Consider two substances from article PMC4135091.

Results are given in words; binding and its absence hold for the method and conditions named. For some assays here: Binding seen in cells or lysates may run through a third protein. Some binding calls cover weakened binding; strength is not graded here.

The target of experiment [1] is FLAG-tagged N1 (vaccinia virus (VACV)) (UniProt P17361). The experiment is described as follows: co-IP.
Experiment [2] has as its target TAP-tagged N1 expressed from the recombinant vaccinia virus vN1.TAP (vaccinia virus strain Western Reserve) (UniProt P17361). The experiment is described as follows: dimer-sized band on a gel after tandem affinity purification.

On to “N1 fused with Renilla luciferase at its N terminus (from UniProt P17361 1-117)”, for which the binding result in experiment [1] is “binds”. “TAP-tagged N1 expressed from the recombinant vaccinia virus vN1.TAP (from UniProt P17361 1-117)”: the binding result in experiment [2] is “binds”.
